Measurements: paper doi:10.1101/190751
Results are given in words; binding and its absence hold for the method and conditions named. In cells and extracts the contact can be indirect. These calls come from enrichment with a bait or labelling near it, and not all partners need be listed.

Assays:
Assay in all cases: affinity purification with mass spectrometry
[1] = target: in situ HA-tagged TAC42 (T. brucei) (UniProt Q57YB6)
[2] = target: Myc-tagged TAC60 (T. brucei) (UniProt Q57WR0)
[3] = target: in situ HA-tagged TAC40 (T. brucei) (UniProt Q581S0)

| Substance | binding [1] | binding [2] | binding [3] |
| --- | --- | --- | --- |
| TAC40 (from UniProt Q581S0) | binds | binds | – |
| TAC42 (from UniProt Q57YB6) | – | binds | – |
| TAC60 (from UniProt Q57WR0) | binds | – | binds |
